Reference: PMC2734569, “Functional mapping of the fission yeast DNA polymerase δ B-subunit Cdc1 by site-directed and random pentapeptide insertion mutagenesis” (BMC Molecular Biology, 2009)
These are yes or no findings as the source states them, for the method shown. Where a sequence is shown, tags or fusion partners need not be part of it.

What was measured:
Assay in all cases: two-hybrid; LexA-Cdc1 bait (pBTM116 or pBTM116BN) with Gal4-Pol3 prey and co-expressed c-myc-tagged Cdc27 (pAA-Cdc27) in S. cerevisiae CTY10-5d; ONPG liquid culture beta-galactosidase assay, mean of triplicates, as percent of wild-type Cdc1
[1] = molecular target: T1, Cdc1-J15 (Schizosaccharomyces pombe, UniProt P87324 1-462, Gln-GlyValProLeuGln-Val)
T1 construct: Cdc1, S. pombe, with a pentapeptide inserted after residue 203; source: yeast two-hybrid fusion, in S. cerevisiae CTY10-5d
T1 sequence (looked up): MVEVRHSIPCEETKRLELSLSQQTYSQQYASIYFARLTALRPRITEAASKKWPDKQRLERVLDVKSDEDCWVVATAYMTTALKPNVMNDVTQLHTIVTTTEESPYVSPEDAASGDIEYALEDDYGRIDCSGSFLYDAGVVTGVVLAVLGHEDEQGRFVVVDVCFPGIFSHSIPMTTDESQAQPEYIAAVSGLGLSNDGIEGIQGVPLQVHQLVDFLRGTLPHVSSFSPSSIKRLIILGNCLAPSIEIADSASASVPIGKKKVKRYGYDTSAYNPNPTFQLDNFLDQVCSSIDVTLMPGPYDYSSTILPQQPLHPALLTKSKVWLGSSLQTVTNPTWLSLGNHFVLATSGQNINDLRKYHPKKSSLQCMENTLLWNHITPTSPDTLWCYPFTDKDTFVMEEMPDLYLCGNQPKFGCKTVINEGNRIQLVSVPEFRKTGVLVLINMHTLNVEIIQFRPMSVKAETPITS

[2] = molecular target: T2, Cdc1-A2 (Schizosaccharomyces pombe, UniProt P87324 1-462, Gly293Ala)
T2 construct: Cdc1, S. pombe, point mutant; source: yeast two-hybrid fusion, in S. cerevisiae CTY10-5d
T2 sequence (looked up): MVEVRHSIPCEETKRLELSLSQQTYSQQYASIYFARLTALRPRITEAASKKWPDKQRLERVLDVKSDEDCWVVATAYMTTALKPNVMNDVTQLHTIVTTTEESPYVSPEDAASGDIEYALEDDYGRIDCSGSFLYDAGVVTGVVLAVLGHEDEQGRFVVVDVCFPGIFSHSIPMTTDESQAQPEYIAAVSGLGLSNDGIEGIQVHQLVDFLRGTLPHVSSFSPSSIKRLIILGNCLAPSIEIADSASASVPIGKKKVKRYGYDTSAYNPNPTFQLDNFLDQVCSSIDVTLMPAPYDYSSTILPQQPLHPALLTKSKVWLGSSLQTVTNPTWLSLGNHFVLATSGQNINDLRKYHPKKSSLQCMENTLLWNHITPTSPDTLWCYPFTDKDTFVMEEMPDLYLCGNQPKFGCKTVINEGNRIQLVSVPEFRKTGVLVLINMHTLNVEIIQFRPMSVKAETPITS

[3] = molecular target: T3, Cdc1-J7 (Schizosaccharomyces pombe, UniProt P87324 1-462, Met-GlyValProLeuMet-Glu)
T3 construct: Cdc1, S. pombe, with a pentapeptide inserted after residue 393; source: yeast two-hybrid fusion, in S. cerevisiae CTY10-5d
T3 sequence (looked up): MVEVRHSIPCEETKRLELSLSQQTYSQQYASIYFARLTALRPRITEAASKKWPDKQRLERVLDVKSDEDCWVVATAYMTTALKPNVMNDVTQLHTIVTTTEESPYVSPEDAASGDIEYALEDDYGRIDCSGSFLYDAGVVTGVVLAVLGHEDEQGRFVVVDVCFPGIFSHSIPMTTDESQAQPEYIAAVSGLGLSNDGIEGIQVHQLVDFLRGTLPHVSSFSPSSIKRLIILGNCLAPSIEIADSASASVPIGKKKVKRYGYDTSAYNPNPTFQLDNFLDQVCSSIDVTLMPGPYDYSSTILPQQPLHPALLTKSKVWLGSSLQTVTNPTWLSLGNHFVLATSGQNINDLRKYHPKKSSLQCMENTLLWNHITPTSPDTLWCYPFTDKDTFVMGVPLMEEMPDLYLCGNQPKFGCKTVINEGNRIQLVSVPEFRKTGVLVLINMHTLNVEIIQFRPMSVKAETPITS

[4] = molecular target: T4, Cdc1-J6 (Schizosaccharomyces pombe, UniProt P87324 1-462, Tyr-GlyValProHisTyr-Gly)
T4 construct: Cdc1, S. pombe, with a pentapeptide inserted after residue 124; source: yeast two-hybrid fusion, in S. cerevisiae CTY10-5d
T4 sequence (looked up): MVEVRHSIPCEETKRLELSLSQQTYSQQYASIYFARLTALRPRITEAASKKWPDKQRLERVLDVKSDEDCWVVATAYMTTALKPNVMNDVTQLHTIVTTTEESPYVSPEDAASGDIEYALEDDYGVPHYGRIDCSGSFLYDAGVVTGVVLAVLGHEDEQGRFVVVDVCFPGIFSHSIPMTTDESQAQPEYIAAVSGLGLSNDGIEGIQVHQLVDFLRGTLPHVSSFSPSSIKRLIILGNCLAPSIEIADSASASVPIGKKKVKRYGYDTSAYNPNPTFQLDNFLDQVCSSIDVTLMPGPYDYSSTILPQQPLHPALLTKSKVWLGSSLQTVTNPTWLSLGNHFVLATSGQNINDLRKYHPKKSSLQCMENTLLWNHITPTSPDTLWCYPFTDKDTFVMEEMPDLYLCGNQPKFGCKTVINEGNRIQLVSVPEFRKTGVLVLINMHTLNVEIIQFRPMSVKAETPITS

B1: Pol3 (fission yeast DNA polymerase delta catalytic subunit) (natural protein, Schizosaccharomyces pombe, UniProt P30316 1-1086, looked up)
chain: MTDRSSNEGVVLNKENYPFPRRNGSIHGEITDVKRRRLSERNGYGDKKGSSSKEKTSSFEDELAEYASQLDQDEIKSSKDQQWQRPALPAINPEKDDIYFQQIDSEEFTEGSVPSIRLFGVTDNGNSILVHVVGFLPYFYVKAPVGFRPEMLERFTQDLDATCNGGVIDHCIIEMKENLYGFQGNEKSPFIKIFTTNPRILSRARNVFERGEFNFEELFPVGVGVTTFESNTQYLLRFMIDCDVVGMNWIHLPASKYQFRYQNRVSNCQIEAWINYKDLISLPAEGQWSKMAPLRIMSFDIECAGRKGVFPDPSIDPVIQIASIVTQYGDSTPFVRNVFCVDTCSQIVGTQVYEFQNQAEMLSSWSKFVRDVDPDVLIGYNICNFDIPYLLDRAKSLRIHNFPLLGRIHNFFSVAKETTFSSKAYGTRESKTTSIPGRLQLDMLQVMQRDFKLRSYSLNAVCSQFLGEQKEDVHYSIITDLQNGTADSRRRLAIYCLKDAYLPQRLMDKLMCFVNYTEMARVTGVPFNFLLARGQQIKVISQLFRKALQHDLVVPNIRVNGTDEQYEGATVIEPIKGYYDTPIATLDFSSLYPSIMQAHNLCYTTLLDSNTAELLKLKQDVDYSVTPNGDYFVKPHVRKGLLPIILADLLNARKKAKADLKKETDPFKKAVLDGRQLALKVSANSVYGFTGATNGRLPCLAISSSVTSYGRQMIEKTKDVVEKRYRIENGYSHDAVVIYGDTDSVMVKFGVKTLPEAMKLGEEAANYVSDQFPNPIKLEFEKVYFPYLLISKKRYAGLFWTRTDTYDKMDSKGIETVRRDNCPLVSYVIDTALRKMLIDQDVEGAQLFTKKVISDLLQNKIDMSQLVITKALSKTDYAAKMAHVELAERMRKRDAGSAPAIGDRVAYVIIKGAQGDQFYMRSEDPIYVLENNIPIDAKYYLENQLSKPLLRIFEPILGEKASSLLHGDHTRTISMAAPSVGGIMKFAVKVETCLGCKAPIKKGKTALCENCLNRSAELYQRQVAQVNDLEVRFARLWTQCQRCQGSMHQDVICTSRDCPIFYMRIAEHKKLQQSVDLLKRFDEMSW
notes: DNA polymerase delta catalytic subunit Pol3, S. pombe; prey plasmid named pACT-Pol3 in the results and pGAD2F-Pol3 in the methods; also called Gal4-Pol3; pACT-Pol3; source: yeast two-hybrid fusion, in S. cerevisiae CTY10-5d
For B1, the binding [1] was “no binding (tested: 1% of wild type (Table 1); < 0.5% (text))”, the binding [2] was “no binding (tested: <1% of wild type (Table 1))” and the binding [3] was “no binding (tested: <1% of wild type (Table 1))”. The binding [4] was “no binding (tested: <1% of wild type (Table 1))”.
